Molecular target: T1, CYP17 (steroid 17-alpha-hydroxylase/17,20 lyase) (Homo sapiens, UniProt P05093)
T1 sequence (P05093 whole entry): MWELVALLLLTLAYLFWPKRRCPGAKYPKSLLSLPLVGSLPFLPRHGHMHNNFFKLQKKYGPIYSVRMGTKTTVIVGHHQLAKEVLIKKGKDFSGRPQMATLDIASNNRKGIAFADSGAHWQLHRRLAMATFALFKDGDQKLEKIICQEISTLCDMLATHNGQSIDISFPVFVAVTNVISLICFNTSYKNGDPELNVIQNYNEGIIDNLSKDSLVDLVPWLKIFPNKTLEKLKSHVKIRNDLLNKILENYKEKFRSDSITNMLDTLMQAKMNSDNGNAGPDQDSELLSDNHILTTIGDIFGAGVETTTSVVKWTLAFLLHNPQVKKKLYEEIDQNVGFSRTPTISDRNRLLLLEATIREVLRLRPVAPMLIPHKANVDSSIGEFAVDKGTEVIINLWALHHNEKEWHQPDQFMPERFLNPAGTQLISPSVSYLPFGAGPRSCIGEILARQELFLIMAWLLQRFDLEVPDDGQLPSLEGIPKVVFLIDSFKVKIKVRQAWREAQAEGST
Experiment: in vitro

SMILES: N#Cc1ccc(C2CCCc3cncn32)cc1 (stereo unspecified) [FADROZOLE]
- inhibition at 2.5 µM: 2%

From ChEMBL document CHEMBL1687929, “Design, synthesis, and biological evaluation of imidazolyl derivatives of 4,7-disubstituted coumarins as aromatase inhibitors selective over 17-α-hydroxylase/C17-20 lyase” (J Med Chem, 2011)
